Measured values taken from paper PMC4686813.
Results are given in words; binding and its absence hold for the method and conditions named. Binding seen in cells or lysates may run through a third protein. A result given as binding can be weak or reduced; the word gives no strength. Tags and fused reporters may be left off the sequences shown.

Protein sequences, listed by entry. Tags and fused reporters are not part of them. Lines headed by an entry give the natural chain unless they say otherwise; changes in a name come on top.
UniProt P47758: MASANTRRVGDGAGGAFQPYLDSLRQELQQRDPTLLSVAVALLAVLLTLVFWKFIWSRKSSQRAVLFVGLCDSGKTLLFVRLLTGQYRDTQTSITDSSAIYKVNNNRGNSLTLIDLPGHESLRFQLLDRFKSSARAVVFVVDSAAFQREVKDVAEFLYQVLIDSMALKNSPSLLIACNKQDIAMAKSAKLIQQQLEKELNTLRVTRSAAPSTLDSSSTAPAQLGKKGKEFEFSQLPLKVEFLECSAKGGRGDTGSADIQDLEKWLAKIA

Target: T1, human SRα (His-tagged) (human) (UniProt P08240)
T1 sequence: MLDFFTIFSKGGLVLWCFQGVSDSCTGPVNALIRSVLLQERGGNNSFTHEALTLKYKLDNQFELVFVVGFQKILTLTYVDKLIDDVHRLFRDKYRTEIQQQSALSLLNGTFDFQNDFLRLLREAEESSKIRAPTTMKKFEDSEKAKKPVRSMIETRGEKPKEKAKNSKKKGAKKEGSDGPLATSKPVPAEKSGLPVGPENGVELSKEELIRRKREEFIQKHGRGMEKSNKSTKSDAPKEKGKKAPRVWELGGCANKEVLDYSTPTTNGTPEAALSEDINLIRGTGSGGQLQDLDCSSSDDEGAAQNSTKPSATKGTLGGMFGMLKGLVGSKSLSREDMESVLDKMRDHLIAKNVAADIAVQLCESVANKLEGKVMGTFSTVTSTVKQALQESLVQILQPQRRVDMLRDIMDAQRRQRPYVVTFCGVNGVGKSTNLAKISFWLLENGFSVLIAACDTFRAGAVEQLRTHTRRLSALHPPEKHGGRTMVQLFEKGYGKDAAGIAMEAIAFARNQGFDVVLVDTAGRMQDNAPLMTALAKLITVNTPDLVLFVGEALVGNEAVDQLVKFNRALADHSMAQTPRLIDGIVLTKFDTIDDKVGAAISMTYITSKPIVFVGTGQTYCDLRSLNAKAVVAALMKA
Experiment: co-purification; human His-SRα and murine SRβΔTM co-expressed in E. coli from a bi-cistronic construct; Ni-NTA, Q-sepharose flow-through, SP-sepharose, Superdex 200 in SR buffer (25 mM HEPES pH 7.5, 300 mM KOAc, 5 mM Mg(OAc)2)

binding: binds
Substance: murine SRβΔTM (from UniProt P47758) (domain or fragment)
